# Experimental data: the supplement of paper PMC8728848
# This is one part of the list.
# Experiments:
# Assay in all cases: glycan array binding signal (z-score within array); higher = stronger binding
# Settings in all cases: glycan notation: IUPAC condensed, linker removed
# GlcNAc(b1-3)Gal(b1-4)Glc = target: GlcNAc(b1-3)Gal(b1-4)Glc
# Summary of the method: (§1)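 Glycan array data were curated from 3228 arrays in the Consortium for Functional Glycomics database and kept only where the protein sequence was available. Glycan names were converted to IUPAC-condensed notation, and columns mapping to the same glycan were averaged. The binding signal is a within-array Z-score, averaged across arrays of the same protein sequence at different concentrations or buffers and across linkers. Negative Z-scores can be read as non-binding.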
# [1] = target: GlcNAc(b1-3)Gal(b1-4)GlcNAc
# Summary of the method: as §1
# [2] = target: GlcNAc(b1-3)Gal(b1-4)GlcNAc(b1-2)Man(a1-3)[GlcNAc(b1-3)Gal(b1-4)GlcNAc(b1-2)Man(a1-6)]Man(b1-4)GlcNAc(b1-4)GlcNAc
# Summary of the method: as §1
# [3] = target: GlcNAc(b1-3)Gal(b1-4)GlcNAc(b1-2)Man(a1-3)[GlcNAc(b1-3)Gal(b1-4)GlcNAc(b1-2)Man(a1-6)]Man(b1-4)GlcNAc(b1-4)[Fuc(a1-6)]GlcNAc
# Summary of the method: as §1
# [4] = target: GlcNAc(b1-3)Gal(b1-4)GlcNAc(b1-2)[GlcNAc(b1-3)Gal(b1-4)GlcNAc(b1-6)]Man(a1-6)[GlcNAc(b1-3)Gal(b1-4)GlcNAc(b1-2)Man(a1-3)]Man(b1-4)GlcNAc(b1-4)GlcNAc
# Summary of the method: as §1
# [5] = target: GlcNAc(b1-3)Gal(b1-4)GlcNAc(b1-3)Gal(b1-4)GlcNAc
# Summary of the method: as §1
# [6] = target: GlcNAc(b1-3)Gal(b1-4)GlcNAc(b1-3)Gal(b1-4)GlcNAc(b1-2)Man(a1-3)[GlcNAc(b1-3)Gal(b1-4)GlcNAc(b1-3)Gal(b1-4)GlcNAc(b1-2)Man(a1-6)]Man(b1-4)GlcNAc(b1-4)GlcNAc
# Summary of the method: as §1
# [7] = target: GlcNAc(b1-3)Gal(b1-4)GlcNAc(b1-3)Gal(b1-4)GlcNAc(b1-2)Man(a1-3)[GlcNAc(b1-3)Gal(b1-4)GlcNAc(b1-3)Gal(b1-4)GlcNAc(b1-2)Man(a1-6)]Man(b1-4)GlcNAc(b1-4)[Fuc(a1-6)]GlcNAc
# Summary of the method: as §1
# [8] = target: GlcNAc(b1-3)Gal(b1-4)GlcNAc(b1-3)Gal(b1-4)GlcNAc(b1-2)[GlcNAc(b1-3)Gal(b1-4)GlcNAc(b1-3)Gal(b1-4)GlcNAc(b1-6)]Man(a1-6)[GlcNAc(b1-3)Gal(b1-4)GlcNAc(b1-3)Gal(b1-4)GlcNAc(b1-2)Man(a1-3)]Man(b1-4)GlcNAc(b1-4)[Fuc(a1-6)]GlcNAc
# Summary of the method: as §1
# [9] = target: GlcNAc(b1-3)Gal(b1-4)GlcNAc(b1-3)Gal(b1-4)GlcNAc(b1-3)Gal(b1-4)GlcNAc(b1-2)Man(a1-3)[GlcNAc(b1-3)Gal(b1-4)GlcNAc(b1-3)Gal(b1-4)GlcNAc(b1-3)Gal(b1-4)GlcNAc(b1-2)Man(a1-6)]Man(b1-4)GlcNAc(b1-4)GlcNAc
# Summary of the method: as §1
# [10] = target: GlcNAc(b1-3)Gal(b1-4)GlcNAc(b1-3)Gal(b1-4)GlcNAc(b1-3)Gal(b1-4)GlcNAc(b1-2)Man(a1-3)[GlcNAc(b1-3)Gal(b1-4)GlcNAc(b1-3)Gal(b1-4)GlcNAc(b1-3)Gal(b1-4)GlcNAc(b1-2)Man(a1-6)]Man(b1-4)GlcNAc(b1-4)[Fuc(a1-6)]GlcNAc
# Summary of the method: as §1
# [11] = target: GlcNAc(b1-3)Gal(b1-4)GlcNAc(b1-3)Gal(b1-4)GlcNAc(b1-3)Gal(b1-4)GlcNAc(b1-2)[GlcNAc(b1-3)Gal(b1-4)GlcNAc(b1-3)Gal(b1-4)GlcNAc(b1-3)Gal(b1-4)GlcNAc(b1-6)]Man(a1-6)[GlcNAc(b1-3)Gal(b1-4)GlcNAc(b1-3)Gal(b1-4)GlcNAc(b1-3)Gal(b1-4)GlcNAc(b1-2)Man(a1-3)]Man(b1-4)GlcNAc(b1-4)[Fuc(a1-6)]GlcNAc
# Summary of the method: as §1
# [12] = target: GlcNAc(b1-3)Gal(b1-4)GlcNAc(b1-3)Gal(b1-4)GlcNAc(b1-3)Gal(b1-4)GlcNAc(b1-3)Gal(b1-4)GlcNAc(b1-2)Man(a1-3)[GlcNAc(b1-3)Gal(b1-4)GlcNAc(b1-3)Gal(b1-4)GlcNAc(b1-3)Gal(b1-4)GlcNAc(b1-3)Gal(b1-4)GlcNAc(b1-2)Man(a1-6)]Man(b1-4)GlcNAc(b1-4)GlcNAc
# Summary of the method: as §1
# [13] = target: GlcNAc(b1-3)Gal(b1-4)GlcNAc(b1-3)Gal(b1-4)GlcNAc(b1-3)Gal(b1-4)GlcNAc(b1-3)Gal(b1-4)GlcNAc(b1-2)Man(a1-3)[GlcNAc(b1-3)Gal(b1-4)GlcNAc(b1-3)Gal(b1-4)GlcNAc(b1-3)Gal(b1-4)GlcNAc(b1-3)Gal(b1-4)GlcNAc(b1-2)Man(a1-6)]Man(b1-4)GlcNAc(b1-4)[Fuc(a1-6)]GlcNAc
# Summary of the method: as §1
# [14] = target: GlcNAc(b1-3)Gal(b1-4)GlcNAc(b1-3)Gal(b1-4)GlcNAc(b1-3)Gal(b1-4)GlcNAc(b1-3)Gal(b1-4)GlcNAc(b1-2)[GlcNAc(b1-3)Gal(b1-4)GlcNAc(b1-3)Gal(b1-4)GlcNAc(b1-3)Gal(b1-4)GlcNAc(b1-3)Gal(b1-4)GlcNAc(b1-6)]Man(a1-6)[GlcNAc(b1-3)Gal(b1-4)GlcNAc(b1-3)Gal(b1-4)GlcNAc(b1-3)Gal(b1-4)GlcNAc(b1-3)Gal(b1-4)GlcNAc(b1-2)Man(a1-3)]Man(b1-4)GlcNAc(b1-4)[Fuc(a1-6)]GlcNAc
# Summary of the method: as §1
# [15] = target: GlcNAc(b1-3)Gal(b1-4)GlcNAc(b1-3)Gal(b1-4)GlcNAc(b1-3)GalNAc
# Summary of the method: as §1
# [16] = target: GlcNAc(b1-3)Gal(b1-4)GlcNAc(b1-3)GalNAc
# Summary of the method: as §1
# [17] = target: GlcNAc(b1-3)Gal(b1-4)GlcNAc(b1-3)[GlcNAc(b1-3)Gal(b1-4)GlcNAc(b1-3)]GalNAc
# Summary of the method: as §1
# [18] = target: GlcNAc(b1-3)Gal(b1-4)GlcNAc(b1-6)[Gal(b1-3)]GalNAc
# Summary of the method: as §1
# [19] = target: GlcNAc(b1-3)Gal(b1-4)GlcNAc(b1-6)[GlcNAc(b1-3)Gal(b1-3)]GalNAc
# Summary of the method: as §1
# [20] = target: GlcNAc(b1-3)Gal(b1-4)GlcNAc(b1-6)[GlcNAc(b1-3)]Gal(b1-4)GlcNAc
# Summary of the method: as §1
# GlcNAc(b1-3)GalNAc = target: GlcNAc(b1-3)GalNAc
# Summary of the method: as §1
# GlcNAc(b1-3)Man = target: GlcNAc(b1-3)Man
# Summary of the method: as §1
# [21] = target: GlcNAc(b1-3)[GlcNAc(b1-4)][GlcNAc(b1-6)]GlcNAc
# Summary of the method: as §1
# [22] = target: GlcNAc(b1-3)[GlcNAc(b1-6)]Gal(b1-4)GlcNAc
# Summary of the method: as §1
# [23] = target: GlcNAc(b1-3)[GlcNAc(b1-6)]GalNAc
# Summary of the method: as §1
# [24] = target: GlcNAc(b1-4)Gal(b1-4)GlcNAc
# Summary of the method: as §1
# GlcNAc(b1-4)GlcNAc = target: GlcNAc(b1-4)GlcNAc
# Summary of the method: as §1
# [25] = target: GlcNAc(b1-4)GlcNAc(b1-4)GlcNAc
# Summary of the method: as §1
# [26] = target: GlcNAc(b1-4)GlcNAc(b1-4)GlcNAc(b1-4)GlcNAc(b1-4)GlcNAc
# Summary of the method: as §1
# [27] = target: GlcNAc(b1-4)GlcNAc(b1-4)GlcNAc(b1-4)GlcNAc(b1-4)GlcNAc(b1-4)GlcNAc
# Summary of the method: as §1
# [28] = target: GlcNAc(b1-4)[GlcNAc(b1-6)]GalNAc
# Summary of the method: as §1
# [29] = target: GlcNAc(b1-6)Gal(b1-4)GlcNAc
# Summary of the method: as §1
# GlcNAc(b1-6)GalNAc = target: GlcNAc(b1-6)GalNAc
# Summary of the method: as §1
# [30] = target: GlcNAc6S(b1-3)Gal(b1-4)GlcNAc
# Summary of the method: as §1
# Kdn(a2-3)Gal(b1-3)GalNAc = target: Kdn(a2-3)Gal(b1-3)GalNAc
# Summary of the method: as §1
# Kdn(a2-3)Gal(b1-3)GlcNAc = target: Kdn(a2-3)Gal(b1-3)GlcNAc
# Summary of the method: as §1
# Kdn(a2-3)Gal(b1-4)Glc = target: Kdn(a2-3)Gal(b1-4)Glc
# Summary of the method: as §1
# Kdn(a2-3)Gal(b1-4)GlcNAc = target: Kdn(a2-3)Gal(b1-4)GlcNAc
# Summary of the method: as §1
# [31] = target: Kdn(a2-3)Gal(b1-4)[Fuc(a1-3)]GlcNAc
# Summary of the method: as §1
# Kdn(a2-6)Gal(b1-4)GlcNAc = target: Kdn(a2-6)Gal(b1-4)GlcNAc
# Summary of the method: as §1
# [32] = target: Man(a1-2)Man(a1-2)Man(a1-3)Man
# Summary of the method: as §1
# [33] = target: Man(a1-2)Man(a1-2)Man(a1-6)[Man(a1-3)]Man
# Summary of the method: as §1
# Man(a1-2)Man(a1-3)Man = target: Man(a1-2)Man(a1-3)Man
# Summary of the method: as §1
# [34] = target: Man(a1-2)Man(a1-3)[Man(a1-2)Man(a1-6)]Man
# Summary of the method: as §1
binder,measurement,setting,value
pilr alpha (protein) MLYGVTQPKHLSASMGGSVEIPFSFYYPWELATAPDVRISWRRGHFHRQSFYSTRPPSIHKDYVNRLFLNWTEGQKSGFLRISNLQKQDQSVYFCRVELDTRSSGRQQWQSIEGTKLSIT,glycan array binding signal (z-score),GlcNAc(b1-3)Gal(b1-4)Glc,-0.019
same,glycan array binding signal (z-score),[1],-0.07
same,glycan array binding signal (z-score),[2],0.049
same,glycan array binding signal (z-score),[3],0.024
same,glycan array binding signal (z-score),[4],1.61
same,glycan array binding signal (z-score),[5],0.692
same,glycan array binding signal (z-score),[6],1.68
same,glycan array binding signal (z-score),[7],0.373
same,glycan array binding signal (z-score),[8],1.14
same,glycan array binding signal (z-score),[9],0.929
same,glycan array binding signal (z-score),[10],1.41
same,glycan array binding signal (z-score),[11],0.798
same,glycan array binding signal (z-score),[12],0.358
same,glycan array binding signal (z-score),[13],-0.21
same,glycan array binding signal (z-score),[14],0.301
same,glycan array binding signal (z-score),[15],-0.4
same,glycan array binding signal (z-score),[16],-0.996
same,glycan array binding signal (z-score),[17],-0.196
same,glycan array binding signal (z-score),[18],-0.669
same,glycan array binding signal (z-score),[19],-0.465
same,glycan array binding signal (z-score),[20],-0.38
same,glycan array binding signal (z-score),GlcNAc(b1-3)GalNAc,-0.39
same,glycan array binding signal (z-score),GlcNAc(b1-3)Man,-0.137
same,glycan array binding signal (z-score),[21],0.471
same,glycan array binding signal (z-score),[22],0.115
same,glycan array binding signal (z-score),[23],-0.198
same,glycan array binding signal (z-score),[24],-0.215
same,glycan array binding signal (z-score),GlcNAc(b1-4)GlcNAc,-0.441
same,glycan array binding signal (z-score),[25],-0.675
same,glycan array binding signal (z-score),[26],-0.061
same,glycan array binding signal (z-score),[27],-0.395
same,glycan array binding signal (z-score),[28],-0.608
same,glycan array binding signal (z-score),[29],-0.116
same,glycan array binding signal (z-score),GlcNAc(b1-6)GalNAc,0.309
same,glycan array binding signal (z-score),[30],-0.276
same,glycan array binding signal (z-score),Kdn(a2-3)Gal(b1-3)GalNAc,0.304
same,glycan array binding signal (z-score),Kdn(a2-3)Gal(b1-3)GlcNAc,0.202
same,glycan array binding signal (z-score),Kdn(a2-3)Gal(b1-4)Glc,0.547
same,glycan array binding signal (z-score),Kdn(a2-3)Gal(b1-4)GlcNAc,-0.445
same,glycan array binding signal (z-score),[31],-0.586
same,glycan array binding signal (z-score),Kdn(a2-6)Gal(b1-4)GlcNAc,-0.222
same,glycan array binding signal (z-score),[32],0.161
same,glycan array binding signal (z-score),[33],0.479
same,glycan array binding signal (z-score),Man(a1-2)Man(a1-3)Man,-0.461
same,glycan array binding signal (z-score),[34],-0.688
